# In publication PMC12282061:
# What was measured:
# [1] = molecular target: TBK1-HA (swine); test: co-IP; HEK293T cells transfected with TBK1-HA or IKKε-HA along with METTL3-Flag; at 24 h lysates immunoprecipitated with anti-HA antibody; western blot
# [2] = molecular target: METTL3-Flag (swine); test: co-IP; HEK293T cells co-transfected with the two tagged constructs; lysates (M2 buffer, 0.5% Nonidet P-40, 20 mM Tris-HCl, 3 mM EDTA, 3 mM EGTA, PMSF) immunoprecipitated with anti-Flag (M2 beads, 3 h), washed five times with 500 mM NaCl buffer; western blot; also with METTL3-GFP or METTL3-D395A-GFP co-expressed (Fig. 7D, 7I)
substance,measurement,setting,value
METTL3-Flag (from UniProt A0A7H1RGN6),binding,[1],binds
TBK1-HA (from UniProt A0A4X1W422),binding,[2],binds

# No constants are given. Whether binding was seen depends on the method and setting. In cells and extracts the contact can be indirect. Binding can be weak; no strength is given.
